Results: patent publication US5750566A, “Synthetic excitatory amino acids” (Eli Lilly and Company, priority 1995, dated 1998)

Tested on: Long Evans rats
Test: Auditory startle after diazepam withdrawal
Assay type: in vivo, rat (Long Evans)
Details: first four days after cessation, vs control rats receiving vehicle; diazepam 10 mg/kg/day s.c.

## CN1C(=O)CN=C(c2ccccc2)c2cc(Cl)ccc21 [Diazepam]
  auditory startle responding following cessation of chronic diazepam exposure: significantly increased
